Measurements reported in PubChem BioAssay AID493246 (Drosophila RNAi Screening Center, 2011)
Purpose: 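Identify essential fly genes by loss of cell viability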 (primary screen). Cells: Drosophila Kc and S2R+ cells. Reagents: long dsRNA against Drosophila genes. Read-out: 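Raw, unnormalised count of remaining cells in each well; per-plate z-scores of cell number underlie the calls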. Direction: Kc cell number and S2R+ cell number: higher = more cells remaining. Hit rule: 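Counted as a hit if cell number falls by a z-score of at least 3 within its plate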.
The deposit covers about 21,000 reagents; this is an unselected part of those with a known target gene and a result. In the full data, 429 (2%) were called active. 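Values are raw and not normalised between plates; calls rest on per-plate z-scores that were not deposited.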 A plus sign joins genes that one reagent is predicted to hit. Reagent sequences are not shown. Not stated in the record: the amount of reagent, the time to read-out.

no.	target gene	DRSC id	Kc cell number, rep 1	Kc cell number, rep 2	S2R+ cell number, rep 1	S2R+ cell number, rep 2	Call
1	CG5885 (GeneID 34314)	DRSC02910	1.25e6	1.29e6	1.19e6	1.23e6	inactive
2	CG9173 (GeneID 38165)	DRSC08635	1.58e6	1.49e6	1.05e6	1.41e6	inactive
3	Orct2 (GeneID 42890)	DRSC14613	1.47e6	1.54e6	1.14e6	1.17e6	inactive
4	GLaz (GeneID 36447)	DRSC07431	1.47e6	1.53e6	1.09e6	1.22e6	inactive
5	sxc (GeneID 35486)	DRSC04911	1.67e6	1.62e6	1.24e6	1.27e6	inactive
6	CG17580 (GeneID 50228)	DRSC06683	1.73e6	1.70e6	1.32e6	1.47e6	inactive
7	ms(2)35Ci (GeneID 49529)	DRSC01460	1.51e6	1.64e6	9.27e5	1.17e6	inactive
8	CG7298 (GeneID 40210)	DRSC10802	1.46e6	1.55e6	1.19e6	1.17e6	inactive
9	Cyp4d14 (GeneID 45706)	DRSC18457	1.52e6	1.51e6	1.11e6	1.20e6	inactive
10	E(spl)m4-BFM (GeneID 43157)	DRSC16992	1.50e6	1.51e6	1.01e6	1.12e6	inactive
11	CG12320 (GeneID 42189)	DRSC14498	1.54e6	1.49e6	1.11e6	1.25e6	inactive
12	qvr (GeneID 2768718)	DRSC05280	1.49e6	1.47e6	1.04e6	1.16e6	inactive
13	Or22a (GeneID 33335)	DRSC00764	1.65e6	1.68e6	1.14e6	1.29e6	inactive
14	CG8516 (GeneID 41206)	DRSC16437	1.71e6	1.70e6	1.39e6	1.50e6	inactive
15	Cpr65Aw (GeneID 38706)	DRSC08794	1.56e6	1.45e6	9.82e5	1.21e6	inactive
16	CG8187 (GeneID 36720)	DRSC07099	1.38e6	1.41e6	1.04e6	1.08e6	inactive
17	Menl-2 + Menl-1	DRSC07469	1.65e6	1.72e6	1.31e6	1.55e6	inactive
18	Menl-2 + Menl-1	DRSC07470	1.61e6	1.60e6	1.20e6	1.38e6	inactive
19	Prp31 (GeneID 39655)	DRSC10735	1.63e6	1.69e6	1.14e6	1.19e6	inactive
20	Pgk (GeneID 33461)	DRSC00769	1.53e6	1.59e6	1.00e6	1.15e6	inactive
21	Irk3 (GeneID 35131)	DRSC02047	1.75e6	1.83e6	1.24e6	2.89e5	inactive
22	CG18870 (GeneID 59218)	DRSC04313	1.56e6	1.64e6	1.13e6	2.96e5	inactive
23	pck (GeneID 31101)	DRSC18565	5.11e5		8.13e5		inactive
24	CG13016 (GeneID 36562)	DRSC06271	1.91e6	1.93e6	1.37e6	1.56e6	inactive
25	nAChRalpha2 (GeneID 42919)	DRSC17009	1.49e6	1.57e6	1.07e6	1.07e6	inactive
26	CG3927 (GeneID 37576)	DRSC04433	1.60e6	1.69e6	1.26e6	1.39e6	inactive
27	lin-52 (GeneID 31499)	DRSC18106	1.46e6	1.48e6	1.03e6	1.11e6	inactive
28	CG31467 (GeneID 318751)	DRSC16048	1.43e6	1.48e6	1.22e6	1.27e6	inactive
29	eIF2Bbeta (GeneID 31256)	DRSC18465	1.62e6	1.65e6	1.02e6	1.17e6	inactive
30	arg (GeneID 46717)	DRSC18737	6.20e5		8.72e5		inactive
31	CG11360 (GeneID 43810)	DRSC17124	1.26e6	1.22e6	1.02e6	1.11e6	inactive
32	CG11360 (GeneID 43810)	DRSC17134	1.44e6	1.46e6	1.04e6	1.15e6	inactive
33	Argk1 (GeneID 39041)	DRSC08959	1.35e6	1.41e6	9.63e5	1.14e6	inactive
34	Argk1 (GeneID 39041)	DRSC09668	1.79e6	1.84e6	1.08e6	1.08e6	inactive
35	Argk1 (GeneID 39041)	DRSC10460	1.32e6	1.38e6	1.28e6	1.20e6	inactive
36	Coprox (GeneID 44701)	DRSC01996	1.24e6	1.37e6	5.96e5	6.93e5	inactive
37	nbs (GeneID 44259)	DRSC11373	1.27e6	1.23e6	1.29e6	1.36e6	inactive
38	CG11122 (GeneID 32046)	DRSC19382	5.64e5		8.67e5		inactive
39	mir-210 (retired record) (GeneID 3771928)	DRSC19230	1.22e6	1.42e6	1.07e6	1.13e6	inactive
40	Clbn (GeneID 43018)	DRSC14404	1.55e6	1.63e6	9.93e5	1.13e6	inactive
41	CG13711 (GeneID 38576)	DRSC08320	1.35e6	1.34e6	1.10e6	1.21e6	inactive
42	Fer3HCH (GeneID 32260)	DRSC19892	1.55e6	1.50e6	1.08e6	1.13e6	inactive
43	LysD + LysB + LysC (retired record)	DRSC21249	1.50e6	1.57e6	1.13e6	1.24e6	inactive
44	puc (GeneID 40958)	DRSC17034	1.44e6	1.60e6	9.02e5	1.02e6	inactive
45	dpr8 (GeneID 32387)	DRSC19406	1.49e6	1.53e6	1.04e6	1.06e6	inactive
46	dpr8 (GeneID 32387)	DRSC19600	1.50e6	1.49e6	1.08e6	1.19e6	inactive
47	dpr8 (GeneID 32387)	DRSC19938	1.46e6	1.47e6	1.02e6	1.10e6	inactive
48	dpr8 (GeneID 32387)	DRSC19939	1.46e6	1.48e6	1.05e6	1.14e6	inactive
49	CG14752 (GeneID 35840)	DRSC06488	1.64e6	1.65e6	1.35e6	1.50e6	inactive
50	nst (GeneID 39434)	DRSC09755	1.44e6	1.52e6	1.39e6	1.20e6	inactive
51	Obp19d (GeneID 33040)	DRSC20569	1.53e6	1.42e6	1.04e6	1.18e6	inactive
52	pip (GeneID 40104)	DRSC11382	1.36e6	1.49e6	1.22e6	1.34e6	inactive
53	Tie (GeneID 38559)	DRSC08104	1.81e6	1.74e6	9.72e5	1.14e6	inactive
54	Tie (GeneID 38559)	DRSC08702	1.55e6	1.62e6	1.20e6	1.22e6	inactive
55	CG8526 (GeneID 41208)	DRSC16438	1.62e6	1.80e6	1.42e6	1.58e6	inactive
56	ninaG (GeneID 41369)	DRSC16102	1.58e6	1.65e6	1.36e6	1.42e6	inactive
57	PIG-L (GeneID 42388)	DRSC15577	1.47e6	1.44e6	1.08e6	1.20e6	inactive
58	EloA (GeneID 42749)	DRSC16109	1.59e6	1.57e6	1.17e6	1.20e6	inactive
59	CG34188 (GeneID 5740108)	DRSC05549	1.49e6	1.49e6	1.02e6	1.14e6	inactive

A run of entries of the results above, for reference:
no.	target gene	DRSC id	Kc cell number, rep 1	Kc cell number, rep 2	S2R+ cell number, rep 1	S2R+ cell number, rep 2	Call
56	ninaG (GeneID 41369)	DRSC16102	1.58e6	1.65e6	1.36e6	1.42e6	inactive
57	PIG-L (GeneID 42388)	DRSC15577	1.47e6	1.44e6	1.08e6	1.20e6	inactive
58	EloA (GeneID 42749)	DRSC16109	1.59e6	1.57e6	1.17e6	1.20e6	inactive
